In publication PMC12804375:
Results are given in words; binding and its absence hold for the method and conditions named. In cells and extracts the contact can be indirect. These calls come from enrichment with a bait or labelling near it, and not all partners need be listed.

Legend:
[1] = biological target: tripartite motif containing 47 (human (endogenous in HuCCT1)) (UniProt Q96LD4); assay: affinity purification with mass spectrometry; co-IP from HuCCT1 total protein with TRIM47 antibodies and Protein A/G-agarose beads; IP buffer 20 mM Tris pH 8.0, 150 mM NaCl, 1 mM EDTA, PMSF; SDS-PAGE, trypsin, LC-MS (Q Exactive HF-X); candidates at Log2FC >1 and p <0.05
[2] = biological target: T1, tripartite motif containing 47 (human (endogenous in HuCCT1)), Q96LD4; assay: as above; conditions: remark: other sources report otherwise
T1 chain: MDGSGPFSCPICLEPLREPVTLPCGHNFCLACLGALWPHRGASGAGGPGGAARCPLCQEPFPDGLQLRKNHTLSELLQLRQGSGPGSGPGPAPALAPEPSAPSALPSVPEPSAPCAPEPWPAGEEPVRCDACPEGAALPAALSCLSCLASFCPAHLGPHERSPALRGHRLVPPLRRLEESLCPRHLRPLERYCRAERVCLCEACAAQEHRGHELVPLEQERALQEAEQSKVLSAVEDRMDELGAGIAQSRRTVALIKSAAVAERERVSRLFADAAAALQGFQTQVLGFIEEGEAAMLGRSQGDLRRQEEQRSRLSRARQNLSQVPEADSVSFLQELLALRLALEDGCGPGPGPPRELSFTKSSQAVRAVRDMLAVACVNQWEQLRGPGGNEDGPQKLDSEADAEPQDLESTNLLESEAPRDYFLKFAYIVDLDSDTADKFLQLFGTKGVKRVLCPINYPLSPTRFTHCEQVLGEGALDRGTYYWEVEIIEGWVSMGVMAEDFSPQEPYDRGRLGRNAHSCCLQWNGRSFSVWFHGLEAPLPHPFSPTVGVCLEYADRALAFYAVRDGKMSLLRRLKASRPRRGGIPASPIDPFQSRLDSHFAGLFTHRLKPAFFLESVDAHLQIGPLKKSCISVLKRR

B1: DLD (enzyme, UniProt P09622 36-509)
chain: ADQPIDADVTVIGSGPGGYVAAIKAAQLGFKTVCIEKNETLGGTCLNVGCIPSKALLNNSHYYHMAHGKDFASRGIEMSEVRLNLDKMMEQKSTAVKALTGGIAHLFKQNKVVHVNGYGKITGKNQVTATKADGGTQVIDTKNILIATGSEVTPFPGITIDEDTIVSSTGALSLKKVPEKMVVIGAGVIGVELGSVWQRLGADVTAVEFLGHVGGVGIDMEISKNFQRILQKQGFKFKLNTKVTGATKKSDGKIDVSIEAASGGKAEVITCDVLLVCIGRRPFTKNLGLEELGIELDPRGRIPVNTRFQTKIPNIYAIGDVVAGPMLAHKAEDEGIICVEGMAGGAVHIDYNCVPSVIYTHPEVAWVGKSEEQLKEEGIEYKVGKFPFAANSRAKTNADTDGMVKILGQKSTDRVLGAHILGPGAGEMVNEAALALEYGASCEDIARVCHAHPTLSEAFREANLAASFGKSINF
binding [1]: binds

B2: MDH1 (enzyme, UniProt P40925 1-334)
chain: MSEPIRVLVTGAAGQIAYSLLYSIGNGSVFGKDQPIILVLLDITPMMGVLDGVLMELQDCALPLLKDVIATDKEDVAFKDLDVAILVGSMPRREGMERKDLLKANVKIFKSQGAALDKYAKKSVKVIVVGNPANTNCLTASKSAPSIPKENFSCLTRLDHNRAKAQIALKLGVTANDVKNVIIWGNHSSTQYPDVNHAKVKLQGKEVGVYEALKDDSWLKGEFVTTVQQRGAAVIKARKLSSAMSAAKAICDHVRDIWFGTPEGEFVSMGVISDGNSYGVPDDLLYSFPVVIKNKTWKFVEGLPINDFSREKMDLTAKELTEEKESAFEFLSSA
binding [1]: binds

B3: PDHB (enzyme, UniProt P11177 31-359)
chain: LQVTVRDAINQGMDEELERDEKVFLLGEEVAQYDGAYKVSRGLWKKYGDKRIIDTPISEMGFAGIAVGAAMAGLRPICEFMTFNFSMQAIDQVINSAAKTYYMSGGLQPVPIVFRGPNGASAGVAAQHSQCFAAWYGHCPGLKVVSPWNSEDAKGLIKSAIRDNNPVVVLENELMYGVPFEFPPEAQSKDFLIPIGKAKIERQGTHITVVSHSRPVGHCLEAAAVLSKEGVECEVINMRTIRPMDMETIEASVMKTNHLVTVEGGWPQFGVGAEICARIMEGPAFNFLDAPAVRVTGADVPMPYAKILEDNSIPQVKDIIFAIKKTLNI
binding [1]: binds

B4: PC, P11498 21-1178 (enzyme)
chain: TAPAASPNVRRLEYKPIKKVMVANRGEIAIRVFRACTELGIRTVAIYSEQDTGQMHRQKADEAYLIGRGLAPVQAYLHIPDIIKVAKENNVDAVHPGYGFLSERADFAQACQDAGVRFIGPSPEVVRKMGDKVEARAIAIAAGVPVVPGTDAPITSLHEAHEFSNTYGFPIIFKAAYGGGGRGMRVVHSYEELEENYTRAYSEALAAFGNGALFVEKFIEKPRHIEVQILGDQYGNILHLYERDCSIQRRHQKVVEIAPAAHLDPQLRTRLTSDSVKLAKQVGYENAGTVEFLVDRHGKHYFIEVNSRLQVEHTVTEEITDVDLVHAQIHVAEGRSLPDLGLRQENIRINGCAIQCRVTTEDPARSFQPDTGRIEVFRSGEGMGIRLDNASAFQGAVISPHYDSLLVKVIAHGKDHPTAATKMSRALAEFRVRGVKTNIAFLQNVLNNQQFLAGTVDTQFIDENPELFQLRPAQNRAQKLLHYLGHVMVNGPTTPIPVKASPSPTDPVVPAVPIGPPPAGFRDILLREGPEGFARAVRNHPGLLLMDTTFRDAHQSLLATRVRTHDLKKIAPYVAHNFSKLFSMENWGGATFDVAMRFLYECPWRRLQELRELIPNIPFQMLLRGANAVGYTNYPDNVVFKFCEVAKENGMDVFRVFDSLNYLPNMLLGMEAAGSAGGVVEAAISYTGDVADPSRTKYSLQYYMGLAEELVRAGTHILCIKDMAGLLKPTACTMLVSSLRDRFPDLPLHIHTHDTSGAGVAAMLACAQAGADVVDVAADSMSGMTSQPSMGALVACTRGTPLDTEVPMERVFDYSEYWEGARGLYAAFDCTATMKSGNSDVYENEIPGGQYTNLHFQAHSMGLGSKFKEVKKAYVEANQMLGDLIKVTPSSKIVGDLAQFMVQNGLSRAEAEAQAEELSFPRSVVEFLQGYIGVPHGGFPEPFRSKVLKDLPRVEGRPGASLPPLDLQALEKELVDRHGEEVTPEDVLSAAMYPDVFAHFKDFTATFGPLDSLNTRLFLQGPKIAEEFEVELERGKTLHIKALAVSDLNRAGQRQVFFELNGQLRSILVKDTQAMKEMHFHPKALKDVKGQIGAPMPGKVIDIKVVAGAKVAKGQPLCVLSAMKMETVVTSPMEGTVRKVHVTKDMTLEGDDLILEIE
binding [2]: binds

B5: DLAT (enzyme, UniProt P10515 87-647)
chain: SLPPHQKVPLPSLSPTMQAGTIARWEKKEGDKINEGDLIAEVETDKATVGFESLEECYMAKILVAEGTRDVPIGAIICITVGKPEDIEAFKNYTLDSSAAPTPQAAPAPTPAATASPPTPSAQAPGSSYPPHMQVLLPALSPTMTMGTVQRWEKKVGEKLSEGDLLAEIETDKATIGFEVQEEGYLAKILVPEGTRDVPLGTPLCIIVEKEADISAFADYRPTEVTDLKPQVPPPTPPPVAAVPPTPQPLAPTPSAPCPATPAGPKGRVFVSPLAKKLAVEKGIDLTQVKGTGPDGRITKKDIDSFVPSKVAPAPAAVVPPTGPGMAPVPTGVFTDIPISNIRRVIAQRLMQSKQTIPHYYLSIDVNMGEVLLVRKELNKILEGRSKISVNDFIIKASALACLKVPEANSSWMDTVIRQNHVVDVSVAVSTPAGLITPIVFNAHIKGVETIANDVVSLATKAREGKLQPHEFQGGTFTISNLGMFGIKNFSAIINPPQACILAIGASEDKLVPADNEKGFDVASMMSVTLSCDHRVVDGAVGAQWLAEFRKYLEKPITMLL
binding [1]: binds
